From publication PMC10341432
No constants are given. Whether binding was seen depends on the method and setting. In cells and extracts the contact can be indirect. A yes stands for co-enrichment or nearness to the bait. Other partners may have been found.

Protein sequences, listed by entry. Tags and fused reporters are not part of them.
UniProt P08183: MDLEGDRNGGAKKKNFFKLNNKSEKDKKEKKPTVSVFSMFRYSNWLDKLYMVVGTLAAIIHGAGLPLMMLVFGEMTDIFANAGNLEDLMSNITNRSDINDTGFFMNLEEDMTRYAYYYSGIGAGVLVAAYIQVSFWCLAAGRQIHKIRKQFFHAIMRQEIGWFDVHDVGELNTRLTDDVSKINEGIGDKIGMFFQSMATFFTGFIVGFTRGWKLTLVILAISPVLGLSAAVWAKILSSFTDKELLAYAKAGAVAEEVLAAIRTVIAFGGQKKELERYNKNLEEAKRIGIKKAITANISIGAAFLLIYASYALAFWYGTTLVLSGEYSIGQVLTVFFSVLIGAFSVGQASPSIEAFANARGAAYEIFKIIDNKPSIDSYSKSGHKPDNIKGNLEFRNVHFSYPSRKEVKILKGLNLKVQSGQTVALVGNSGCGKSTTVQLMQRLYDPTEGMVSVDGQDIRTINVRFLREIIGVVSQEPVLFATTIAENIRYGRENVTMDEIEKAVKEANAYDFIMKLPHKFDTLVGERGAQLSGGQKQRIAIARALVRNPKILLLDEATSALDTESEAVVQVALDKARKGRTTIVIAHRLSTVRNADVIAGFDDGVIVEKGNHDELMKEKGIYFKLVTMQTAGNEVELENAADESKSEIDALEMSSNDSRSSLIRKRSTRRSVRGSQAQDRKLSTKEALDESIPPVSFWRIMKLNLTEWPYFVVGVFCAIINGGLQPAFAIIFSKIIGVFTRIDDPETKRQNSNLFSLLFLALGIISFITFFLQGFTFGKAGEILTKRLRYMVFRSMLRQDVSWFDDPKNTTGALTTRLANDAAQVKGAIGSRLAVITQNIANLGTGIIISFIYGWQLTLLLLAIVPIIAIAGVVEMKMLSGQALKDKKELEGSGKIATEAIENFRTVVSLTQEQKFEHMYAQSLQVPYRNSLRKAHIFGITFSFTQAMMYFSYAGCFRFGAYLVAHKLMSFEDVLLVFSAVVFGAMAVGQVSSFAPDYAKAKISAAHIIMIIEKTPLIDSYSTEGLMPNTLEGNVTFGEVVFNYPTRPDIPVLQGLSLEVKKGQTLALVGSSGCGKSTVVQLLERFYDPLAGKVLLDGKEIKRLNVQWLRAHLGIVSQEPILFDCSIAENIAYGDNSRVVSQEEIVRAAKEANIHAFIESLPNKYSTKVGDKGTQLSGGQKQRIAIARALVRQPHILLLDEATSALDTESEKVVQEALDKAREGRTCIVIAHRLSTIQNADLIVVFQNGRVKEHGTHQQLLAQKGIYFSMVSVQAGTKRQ

Molecular target: P-glycoprotein (human), as expressed on NIH 3T3 MDR1 cells (human) (UniProt P08183)
Experiment: affinity purification with mass spectrometry; Pgp enriched with 15D3 or UIC2 mAb on Protein G magnetic beads from membrane preparations of NIH 3T3 MDR1 cells; nine washes with RIPA buffer; cross-linked with DSSO or BS2Gd0/d4 on living cells before, or with DSSO on-bead after immunoprecipitation; on-bead trypsin digestion, LC-MS/MS; proteins found with Pgp

B1: caveolae-associated protein 1 (protein, UniProt O54724 1-392)
chain: MEDVTLHIVERPYSGFPDASSEGPEPTQGEARATEEPSGTGSDELIKSDQVNGVLVLSLLDKIIGAVDQIQLTQAQLEERQAEMEGAVQSIQGELSKLGKAHATTSNTVSKLLEKVRKVSVNVKTVRGSLERQAGQIKKLEVNEAELLRRRNFKVMIYQDEVKLPAKLSVSKSLKESEALPEKEGDELGEGERPEDDTAAIELSSDEAVEVEEVIEESRAERIKRSGLRRVDDFKKAFSKEKMEKTKVRTRENLEKTRLKTKENLEKTRHTLEKRMNKLGTRLVPVERREKLKTSRDKLRKSFTPDHVVYARSKTAVYKVPPFTFHVKKIREGEVEVLKATEMVEVGPEDDEVGAERGEATDLLRGSSPDVHTLLEITEESDAVLVDKSDSD
**Q.** B1 was tested. Which binding did it give?
**A.** binds
